Article PMC8216470
No constants are given. Whether binding was seen depends on the method and setting.

Target: T1, mouse ADAT3 (mouse) (UniProt Q6PAT0)
T1 sequence: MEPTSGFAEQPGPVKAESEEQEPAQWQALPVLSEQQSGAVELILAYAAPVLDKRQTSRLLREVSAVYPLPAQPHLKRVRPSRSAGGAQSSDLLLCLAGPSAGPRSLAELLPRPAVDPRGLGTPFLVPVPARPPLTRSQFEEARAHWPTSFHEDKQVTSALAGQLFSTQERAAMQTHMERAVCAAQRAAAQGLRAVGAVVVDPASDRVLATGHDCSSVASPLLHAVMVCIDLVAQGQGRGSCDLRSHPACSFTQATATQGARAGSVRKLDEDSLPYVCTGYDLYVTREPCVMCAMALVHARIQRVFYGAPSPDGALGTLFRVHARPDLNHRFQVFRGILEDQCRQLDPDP
Experiment: SEC; oligomeric state of the protein produced alone, as assessed by size exclusion chromatography; both purified

B1: mouse ADAT3 (protein, UniProt Q6PAT0 1-349)
chain: T1 sequence
binding: no binding
